From publication PMC9325753, “Chilling-induced phosphorylation of IPA1 by OsSAPK6 activates chilling tolerance responses in rice”
For at least one entry, the source does not settle the construct or the ends of the probe. For some assays here: No signal at the amounts used counts as a negative. For some assays here: Tags and fusion partners may be left off the protein sequences shown.

Tests used:
GST = assay: EMSA; conditions: LightShift Chemiluminescent EMSA Kit (Thermo 20148) per manufacturer; pH and temperature not stated; recombinant protein; protein details: GST; label: 5'-biotin on strand 1
GST-IPA1 (Oryza sativa) = biological target: T1, GST-IPA1 (Oryza sativa) (UniProt Q7EXZ2); assay: competition with a labelled probe; conditions: increasing unlabeled P2 against biotin-P2; LightShift Chemiluminescent EMSA Kit (Thermo 20148) per manufacturer; pH and temperature not stated; recombinant protein; residues 1-417; protein details: N-terminal GST (pGEX-4t-1)
T1 sequence (looked up): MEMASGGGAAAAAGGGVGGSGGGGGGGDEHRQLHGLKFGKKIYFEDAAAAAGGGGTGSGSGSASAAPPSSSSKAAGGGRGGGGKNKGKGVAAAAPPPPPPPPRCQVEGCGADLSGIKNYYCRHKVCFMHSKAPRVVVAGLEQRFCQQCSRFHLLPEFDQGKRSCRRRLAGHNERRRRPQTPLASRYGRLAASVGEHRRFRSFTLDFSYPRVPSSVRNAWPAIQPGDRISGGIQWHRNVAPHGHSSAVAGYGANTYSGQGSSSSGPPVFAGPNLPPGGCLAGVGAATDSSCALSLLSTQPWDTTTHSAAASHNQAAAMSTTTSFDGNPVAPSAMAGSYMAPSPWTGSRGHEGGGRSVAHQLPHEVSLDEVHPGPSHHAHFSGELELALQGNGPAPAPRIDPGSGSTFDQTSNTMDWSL

Sequence	binding result (GST)	binding result (GST-IPA1 (Oryza sativa))
TACCTAGGTTTTAAGTTATAGTACTTACAATTTTTTGATGAG (double strand) [Biotin-P2 (OsCBF3 promoter)]	no binding	
TACCTAGGTTTTAAGTTATAGTACTTACAATTTTTTGATGAG (double strand) [P2-Cold (unlabeled competitor)]		binds
